# Results from the supplement of paper PMC8728848.
# The other results are listed elsewhere or left out.
# B1: HA-00510 (Pseudomonas aeruginosa), Q02V39_PSEAB (protein)
# chain: GVPIVNIATPNGAGLSNNHFRDYNVGANGLILNNATGKTQGTQLGGIILGNPNLKGQAAQVILNQVTGGNRSTLAGYTEVAGQSARVIVANPHGITCQGCGFINTPRATLTTGKPIMDGQRLERFQVDGGDIVVEGAELNVGNLEQFDLITRSAKLNAKLYAKNLNIVTGRNDVQADSLQATPRAADGSEKPQLAIDSSALGGMYAGAIRLVGTEQGVGVKLAGDMAASGGDIRIDASGKLSLAQASSQGDLKIAAQAVELNGKTYAGGSAEIRSAEELVNRQS
# Columns and labels:
# Test in all cases: glycan array binding signal (z-score within array); higher = stronger binding
# Details in all cases: glycan notation: IUPAC condensed, linker removed
# [1] = target: Fuc(a1-2)[GalNAc(b1-3)]Gal
# How it was run: (§1)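 The binding signal is a Z-score computed within each array and averaged over linkers. Arrays of the same protein sequence at different concentrations or buffers were also averaged together. Data originate from 3228 arrays in the Consortium for Functional Glycomics database, kept only where the protein sequence was available.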
# Fuc(a1-3)GlcNAc = target: Fuc(a1-3)GlcNAc
# How it was run: as §1
# [2] = target: Fuc(a1-3)[Gal(b1-4)]Glc6S
# How it was run: as §1
# [3] = target: Fuc(a1-3)[Gal(b1-4)]GlcNAc
# How it was run: as §1
# [4] = target: Fuc(a1-3)[Gal(b1-4)]GlcNAc(b1-2)Man
# How it was run: as §1
# [5] = target: Fuc(a1-3)[Gal(b1-4)]GlcNAc(b1-2)Man(a1-3)[Fuc(a1-3)[Gal(b1-4)]GlcNAc(b1-2)Man(a1-6)]Man(b1-4)GlcNAc(b1-4)GlcNAc
# How it was run: as §1
# [6] = target: Fuc(a1-3)[Gal(b1-4)]GlcNAc(b1-2)Man(a1-3)[Fuc(a1-3)[Gal(b1-4)]GlcNAc(b1-2)Man(a1-6)]Man(b1-4)GlcNAc(b1-4)[Fuc(a1-6)]GlcNAc
# How it was run: as §1
# [7] = target: Fuc(a1-3)[Gal(b1-4)]GlcNAc(b1-3)Gal(b1-3)[Fuc(a1-4)]GlcNAc
# How it was run: as §1
# [8] = target: Fuc(a1-3)[Gal(b1-4)]GlcNAc(b1-3)Gal(b1-4)[Fuc(a1-3)]GlcNAc
# How it was run: as §1
# [9] = target: Fuc(a1-3)[Gal(b1-4)]GlcNAc(b1-3)Gal(b1-4)[Fuc(a1-3)]GlcNAc(b1-3)Gal(b1-4)[Fuc(a1-3)]GlcNAc
# How it was run: as §1
# [10] = target: Fuc(a1-3)[Gal(b1-4)]GlcNAc(b1-3)GalNAc
# How it was run: as §1
# [11] = target: Fuc(a1-3)[Gal(b1-4)]GlcNAc(b1-6)GalNAc
# How it was run: as §1
# [12] = target: Fuc(a1-3)[Gal(b1-4)]GlcNAc(b1-6)[Gal(b1-3)GlcNAc(b1-3)]Gal(b1-4)Glc
# How it was run: as §1
# [13] = target: Fuc(a1-3)[Gal(b1-4)]GlcNAc6S
# How it was run: as §1
# [14] = target: Fuc(a1-3)[Gal3S(b1-4)]Glc
# How it was run: as §1
# [15] = target: Fuc(a1-3)[Gal3S(b1-4)]GlcNAc
# How it was run: as §1
# [16] = target: Fuc(a1-3)[Gal3S(b1-4)]GlcNAc6S
# How it was run: as §1
# [17] = target: Fuc(a1-3)[GalNAc(b1-4)]GlcNAc
# How it was run: as §1
# [18] = target: Fuc(a1-3)[GalNAc(b1-4)]GlcNAc6S
# How it was run: as §1
# Fuc(a1-4)GlcNAc = target: Fuc(a1-4)GlcNAc
# How it was run: as §1
# Fuc(b1-3)GlcNAc = target: Fuc(b1-3)GlcNAc
# How it was run: as §1
# Gal(a1-2)Gal = target: Gal(a1-2)Gal
# How it was run: as §1
# Gal(a1-3)Gal = target: Gal(a1-3)Gal
# How it was run: as §1
# Gal(a1-3)Gal(b1-3)GlcNAc = target: Gal(a1-3)Gal(b1-3)GlcNAc
# How it was run: as §1
# [19] = target: Gal(a1-3)Gal(b1-3)GlcNAc(b1-2)Man
# How it was run: as §1
# [20] = target: Gal(a1-3)Gal(b1-3)GlcNAc(b1-2)Man(a1-3)[Gal(a1-3)Gal(b1-3)GlcNAc(b1-2)Man(a1-6)]Man(b1-4)GlcNAc(b1-4)GlcNAc
# How it was run: as §1
# [21] = target: Gal(a1-3)Gal(b1-3)GlcNAc(b1-3)GalNAc
# How it was run: as §1
# [22] = target: Gal(a1-3)Gal(b1-3)GlcNAc(b1-6)GalNAc
# How it was run: as §1
# [23] = target: Gal(a1-3)Gal(b1-3)[Fuc(a1-4)]GlcNAc(b1-2)Man(a1-3)[Gal(a1-3)Gal(b1-3)[Fuc(a1-4)]GlcNAc(b1-2)Man(a1-6)]Man(b1-4)GlcNAc(b1-4)GlcNAc
# How it was run: as §1
# Gal(a1-3)Gal(b1-4)Glc = target: Gal(a1-3)Gal(b1-4)Glc
# How it was run: as §1
# Gal(a1-3)Gal(b1-4)GlcNAc = target: Gal(a1-3)Gal(b1-4)GlcNAc
# How it was run: as §1
# [24] = target: Gal(a1-3)Gal(b1-4)GlcNAc(b1-2)Man
# How it was run: as §1
# [25] = target: Gal(a1-3)Gal(b1-4)GlcNAc(b1-2)Man(a1-3)[Gal(a1-3)Gal(b1-4)GlcNAc(b1-2)Man(a1-6)]Man(b1-4)GlcNAc(b1-4)GlcNAc
# How it was run: as §1
# [26] = target: Gal(a1-3)Gal(b1-4)GlcNAc(b1-3)GalNAc
# How it was run: as §1
# [27] = target: Gal(a1-3)Gal(b1-4)GlcNAc(b1-6)GalNAc
# How it was run: as §1
# [28] = target: Gal(a1-3)Gal(b1-4)[Fuc(a1-3)]GlcNAc
# How it was run: as §1
# [29] = target: Gal(a1-3)Gal(b1-4)[Fuc(a1-3)]GlcNAc(b1-2)Man(a1-3)[Gal(a1-3)Gal(b1-4)[Fuc(a1-3)]GlcNAc(b1-2)Man(a1-6)]Man(b1-4)GlcNAc(b1-4)GlcNAc
# How it was run: as §1
binder,measurement,setting,value
B1,glycan array binding signal (z-score),[1],1.12
same,glycan array binding signal (z-score),Fuc(a1-3)GlcNAc,0.219
same,glycan array binding signal (z-score),[2],-0.423
same,glycan array binding signal (z-score),[3],-0.22
same,glycan array binding signal (z-score),[4],-0.182
same,glycan array binding signal (z-score),[5],0.759
same,glycan array binding signal (z-score),[6],0.246
same,glycan array binding signal (z-score),[7],0.01
same,glycan array binding signal (z-score),[8],-0.869
same,glycan array binding signal (z-score),[9],-1.21
same,glycan array binding signal (z-score),[10],0.368
same,glycan array binding signal (z-score),[11],0.131
same,glycan array binding signal (z-score),[12],-0.343
same,glycan array binding signal (z-score),[13],-0.833
same,glycan array binding signal (z-score),[14],-0.052
same,glycan array binding signal (z-score),[15],-0.484
same,glycan array binding signal (z-score),[16],1.52
same,glycan array binding signal (z-score),[17],0.257
same,glycan array binding signal (z-score),[18],-1.05
same,glycan array binding signal (z-score),Fuc(a1-4)GlcNAc,1.52
same,glycan array binding signal (z-score),Fuc(b1-3)GlcNAc,0.691
same,glycan array binding signal (z-score),Gal(a1-2)Gal,-0.633
same,glycan array binding signal (z-score),Gal(a1-3)Gal,0.182
same,glycan array binding signal (z-score),Gal(a1-3)Gal(b1-3)GlcNAc,-0.035
same,glycan array binding signal (z-score),[19],0.009
same,glycan array binding signal (z-score),[20],-0.086
same,glycan array binding signal (z-score),[21],0.55
same,glycan array binding signal (z-score),[22],-0.434
same,glycan array binding signal (z-score),[23],-0.05
same,glycan array binding signal (z-score),Gal(a1-3)Gal(b1-4)Glc,-0.295
same,glycan array binding signal (z-score),Gal(a1-3)Gal(b1-4)GlcNAc,0.209
same,glycan array binding signal (z-score),[24],-1.3
same,glycan array binding signal (z-score),[25],-0.397
same,glycan array binding signal (z-score),[26],-0.593
same,glycan array binding signal (z-score),[27],-0.007
same,glycan array binding signal (z-score),[28],0.184
same,glycan array binding signal (z-score),[29],1.94

# 9 entries from above, set out differently:
binder	measurement	setting	value
B1	glycan array binding signal (z-score)	Fuc(a1-3)GlcNAc	0.219
same	glycan array binding signal (z-score)	[2]	-0.423
same	glycan array binding signal (z-score)	[3]	-0.22
same	glycan array binding signal (z-score)	[4]	-0.182
same	glycan array binding signal (z-score)	[5]	0.759
same	glycan array binding signal (z-score)	[6]	0.246
same	glycan array binding signal (z-score)	[7]	0.01
same	glycan array binding signal (z-score)	[8]	-0.869
same	glycan array binding signal (z-score)	[9]	-1.21
